Results taken from publication PMC12355757, “TRIM6 ablation reverses ICB resistance in MSS gastric cancer by unleashing cGAS-STING-dependent antitumor immunity” (Journal of Experimental & Clinical Cancer Research : CR, 2025).

Protein sequences, listed by entry. Tags and fused reporters are not part of them. Lines headed by an entry give the natural chain unless they say otherwise; changes in a name come on top. Chains listed by the source or under a name are the forms on record and can include a tag or linker.
Flag-TRIM6 (full length), expressed in MKN28 cells (Q9C030, form named): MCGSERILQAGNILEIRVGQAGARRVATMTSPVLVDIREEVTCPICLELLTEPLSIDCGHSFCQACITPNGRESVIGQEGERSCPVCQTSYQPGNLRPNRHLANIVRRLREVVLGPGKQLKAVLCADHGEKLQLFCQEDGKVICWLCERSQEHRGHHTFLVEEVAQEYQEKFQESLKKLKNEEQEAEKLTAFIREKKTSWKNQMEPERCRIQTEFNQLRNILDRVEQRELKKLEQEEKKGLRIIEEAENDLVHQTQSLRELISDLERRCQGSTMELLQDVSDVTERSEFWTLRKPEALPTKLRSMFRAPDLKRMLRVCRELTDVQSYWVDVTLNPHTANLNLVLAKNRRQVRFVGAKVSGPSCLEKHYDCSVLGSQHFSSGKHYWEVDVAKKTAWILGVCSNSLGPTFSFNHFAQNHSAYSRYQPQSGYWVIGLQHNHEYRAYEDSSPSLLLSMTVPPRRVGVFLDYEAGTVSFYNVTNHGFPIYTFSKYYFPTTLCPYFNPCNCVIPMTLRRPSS
UniProt Q14966: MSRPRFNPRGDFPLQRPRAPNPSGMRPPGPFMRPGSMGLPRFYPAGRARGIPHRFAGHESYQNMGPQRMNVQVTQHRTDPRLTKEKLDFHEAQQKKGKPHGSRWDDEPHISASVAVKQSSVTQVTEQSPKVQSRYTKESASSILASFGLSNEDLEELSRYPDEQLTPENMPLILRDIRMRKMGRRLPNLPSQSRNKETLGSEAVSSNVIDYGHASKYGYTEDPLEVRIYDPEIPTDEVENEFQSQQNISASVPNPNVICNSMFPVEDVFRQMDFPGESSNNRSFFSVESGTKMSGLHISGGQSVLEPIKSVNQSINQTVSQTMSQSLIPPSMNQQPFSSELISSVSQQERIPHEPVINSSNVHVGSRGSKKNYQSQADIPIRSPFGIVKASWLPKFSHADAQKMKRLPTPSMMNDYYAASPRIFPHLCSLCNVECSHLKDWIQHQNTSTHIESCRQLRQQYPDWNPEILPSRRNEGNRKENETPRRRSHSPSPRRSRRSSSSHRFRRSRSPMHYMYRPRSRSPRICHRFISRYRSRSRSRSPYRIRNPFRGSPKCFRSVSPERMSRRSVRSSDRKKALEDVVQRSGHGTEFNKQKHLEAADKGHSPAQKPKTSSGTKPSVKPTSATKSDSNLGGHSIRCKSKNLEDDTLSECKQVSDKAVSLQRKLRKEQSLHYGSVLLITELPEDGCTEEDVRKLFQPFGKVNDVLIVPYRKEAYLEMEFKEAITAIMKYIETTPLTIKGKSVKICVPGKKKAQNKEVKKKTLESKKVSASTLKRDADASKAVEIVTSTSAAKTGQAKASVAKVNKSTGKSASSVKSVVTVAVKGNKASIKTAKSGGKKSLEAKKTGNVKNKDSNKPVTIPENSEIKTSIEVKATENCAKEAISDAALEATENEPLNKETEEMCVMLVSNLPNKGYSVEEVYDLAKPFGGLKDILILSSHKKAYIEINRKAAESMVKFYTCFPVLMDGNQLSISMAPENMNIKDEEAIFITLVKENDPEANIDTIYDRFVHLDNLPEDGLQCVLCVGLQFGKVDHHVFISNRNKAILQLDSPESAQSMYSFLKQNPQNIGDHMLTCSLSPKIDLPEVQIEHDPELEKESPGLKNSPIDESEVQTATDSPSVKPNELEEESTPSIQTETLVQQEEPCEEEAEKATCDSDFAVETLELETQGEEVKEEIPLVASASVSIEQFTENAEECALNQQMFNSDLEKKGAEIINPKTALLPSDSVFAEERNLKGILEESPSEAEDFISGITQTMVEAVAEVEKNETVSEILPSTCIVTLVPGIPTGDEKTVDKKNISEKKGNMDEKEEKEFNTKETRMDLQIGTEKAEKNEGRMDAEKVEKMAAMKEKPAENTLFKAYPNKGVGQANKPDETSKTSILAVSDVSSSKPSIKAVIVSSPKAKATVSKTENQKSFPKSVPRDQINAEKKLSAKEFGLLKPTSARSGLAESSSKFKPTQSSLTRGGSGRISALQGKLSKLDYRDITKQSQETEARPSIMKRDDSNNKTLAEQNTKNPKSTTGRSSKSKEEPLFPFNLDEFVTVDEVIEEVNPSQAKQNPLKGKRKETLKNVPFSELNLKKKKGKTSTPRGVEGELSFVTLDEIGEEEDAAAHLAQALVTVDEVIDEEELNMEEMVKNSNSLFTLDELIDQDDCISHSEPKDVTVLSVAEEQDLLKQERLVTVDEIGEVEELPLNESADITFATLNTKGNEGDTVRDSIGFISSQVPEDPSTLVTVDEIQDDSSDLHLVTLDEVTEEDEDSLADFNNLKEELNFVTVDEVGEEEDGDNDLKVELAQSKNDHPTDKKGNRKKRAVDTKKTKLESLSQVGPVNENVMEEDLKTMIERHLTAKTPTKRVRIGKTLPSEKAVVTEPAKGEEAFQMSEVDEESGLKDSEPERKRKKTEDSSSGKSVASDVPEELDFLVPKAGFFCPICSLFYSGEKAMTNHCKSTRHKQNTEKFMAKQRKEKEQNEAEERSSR
UniProt Q8N884: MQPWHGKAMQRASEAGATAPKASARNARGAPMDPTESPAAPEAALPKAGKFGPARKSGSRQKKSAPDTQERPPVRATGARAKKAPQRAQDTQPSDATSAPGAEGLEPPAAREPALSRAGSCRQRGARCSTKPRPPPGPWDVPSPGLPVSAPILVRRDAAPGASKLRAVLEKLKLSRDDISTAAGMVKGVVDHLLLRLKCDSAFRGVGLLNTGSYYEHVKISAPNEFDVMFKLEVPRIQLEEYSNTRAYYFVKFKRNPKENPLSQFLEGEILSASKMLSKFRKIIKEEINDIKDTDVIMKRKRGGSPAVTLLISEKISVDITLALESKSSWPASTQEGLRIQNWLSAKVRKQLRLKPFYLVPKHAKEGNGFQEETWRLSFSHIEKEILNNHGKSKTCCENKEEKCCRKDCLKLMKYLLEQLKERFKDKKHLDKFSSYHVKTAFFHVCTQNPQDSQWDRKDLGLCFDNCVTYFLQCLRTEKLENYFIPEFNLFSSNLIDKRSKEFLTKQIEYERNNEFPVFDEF

B1: OASL, endogenous (protein, UniProt Q15646 1-514)
chain: MALMQELYSTPASRLDSFVAQWLQPHREWKEEVLDAVRTVEEFLRQEHFQGKRGLDQDVRVLKVVKVGSFGNGTVLRSTREVELVAFLSCFHSFQEAAKHHKDVLRLIWKTMWQSQDLLDLGLEDLRMEQRVPDALVFTIQTRGTAEPITVTIVPAYRALGPSLPNSQPPPEVYVSLIKACGGPGNFCPSFSELQRNFVKHRPTKLKSLLRLVKHWYQQYVKARSPRANLPPLYALELLTIYAWEMGTEEDENFMLDEGFTTVMDLLLEYEVICIYWTKYYTLHNAIIEDCVRKQLKKERPIILDPADPTLNVAEGYRWDIVAQRASQCLKQDCCYDNRENPISSWNVKRARDIHLTVEQRGYPDFNLIVNPYEPIRKVKEKIRRTRGYSGLQRLSFQVPGSERQLLSSRCSLAKYGIFSHTHIYLLETIPSEIQVFVKNPDGGSYAYAINPNSFILGLKQQIEDQQGLPKKQQQLEFQGQVLQDWLGLGIYGIQDSDTLILSKKKGEALFPAS

molecular target: Flag-TRIM6 (full length), expressed in MKN28 cells (human) (UniProt Q9C030); assay: affinity purification with mass spectrometry; MKN28 cells transiently expressing empty vector, Flag-TRIM6 or Flag-TRIM6-ΔPRY-SPRY; anti-Flag immunoprecipitation, SDS-PAGE, gel slices digested with trypsin, LC-MS/MS

binding, binds:
ZNF638, endogenous (from UniProt Q14966 1-1978)
cGAS (cyclic GMP-AMP synthase), endogenous (from UniProt Q8N884 1-522) (enzyme)
B1

No constants are given. Whether binding was seen depends on the method and setting. In cells and extracts the contact can be indirect. These calls come from enrichment with a bait or labelling near it, and not all partners need be listed.
